# Melanoma cell counts after drug treatment

Source: doi:10.1371/journal.pone.0140310, primary screening data, rounded.

Compounds and concentrations:
KU-0063794, 20 nM: COc1ccc(-c2ccc3c(N4CCOCC4)nc(N4C[C@@H](C)O[C@@H](C)C4)nc3n2)cc1CO
JZL184, 1000 nM: O=C(Oc1ccc([N+](=O)[O-])cc1)N1CCC(C(O)(c2ccc3c(c2)OCO3)c2ccc3c(c2)OCO3)CC1
TCS401, 1670 nM: O=C(O)C(=O)Nc1sc2c(c1C(=O)O)CCNC2
L-779450, 200 nM: Oc1cc(-c2nc(-c3ccccc3)[nH]c2-c2ccncc2)ccc1Cl
bexarotene, 2000 nM: C=C(c1ccc(C(=O)O)cc1)c1cc2c(cc1C)C(C)(C)CCC2(C)C
GW9662, 2000 nM: O=C(Nc1ccccc1)c1cc([N+](=O)[O-])ccc1Cl
NVP-TAE684, 80 nM: COc1cc(N2CCC(N3CCN(C)CC3)CC2)ccc1Nc1ncc(Cl)c(Nc2ccccc2S(=O)(=O)C(C)C)n1
selumetinib, 15 nM: Cn1cnc2c(F)c(Nc3ccc(Br)cc3Cl)c(C(=O)NOCCO)cc21
A-769662, 2000 nM: N#Cc1c(O)c2c(-c3ccc(-c4ccccc4O)cc3)csc2[nH]c1=O
GW2580, 1000 nM: COc1ccc(COc2ccc(Cc3cnc(N)nc3N)cc2OC)cc1
AS-252424, 1000 nM: O=C1NC(=O)/C(=C/c2ccc(-c3ccc(F)cc3O)o2)S1
embelin, 1200 nM: CCCCCCCCCCCC1=C(O)C(=O)C=C(O)C1=O
fludarabine, 200 nM: Nc1nc(F)nc2c1ncn2[C@@H]1O[C@H](CO)[C@@H](O)[C@@H]1O
KU-55933, 1000 nM: O=c1cc(-c2cccc3c2Sc2ccccc2S3)oc(N2CCOCC2)c1
palbociclib, 40 nM: CC(=O)c1c(C)c2cnc(Nc3ccc(N4CCNCC4)cn3)nc2n(C2CCCC2)c1=O
darinaparsin, 400 nM: C[As](C)SC[C@H](NC(=O)CC[C@H](N)C(=O)O)C(=O)NCC(=O)O
MK-1775, 20 nM: C=CCn1c(=O)c2cnc(Nc3ccc(N4CCN(C)CC4)cc3)nc2n1-c1cccc(C(C)(C)O)n1
docetaxel, 0.1 nM: CC(=O)O[C@@]12CO[C@@H]1C[C@H](O)[C@@]1(C)C(=O)[C@H](O)C3=C(C)[C@@H](OC(=O)[C@H](O)[C@@H](NC(=O)OC(C)(C)C)c4ccccc4)C[C@@](O)([C@@H](OC(=O)c4ccccc4)[C@H]21)C3(C)C
PLX4720, 80 nM: CCCS(=O)(=O)Nc1ccc(F)c(C(=O)c2c[nH]c3ncc(Cl)cc23)c1F
bortezomib, 1 nM: CC(C)C[C@H](NC(=O)[C@H](Cc1ccccc1)NC(=O)c1cnccn1)B(O)O

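Human melanoma cells were exposed to a pair of drugs for 72 h in 1,536-well plates and read by automated microscopy after fixing and staining. Values are the number of DAPI-stained nuclei as a percentage of the DMSO control: 100 is no effect, lower means fewer cells. Every drug was used at one fixed concentration, the lower of two screened (a fifth of the higher). These are primary screening values without error estimates.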 This is part of the screen, not chosen by result.

Pair | C32
GW9662 + fludarabine | 103
docetaxel + L-779450 | 53.8
palbociclib + embelin | 72.1
GW9662 + bexarotene | 85.5
bexarotene + A-769662 | 96.9
JZL184 + NVP-TAE684 | 85.0
A-769662 + palbociclib | 68.7
darinaparsin + bortezomib | 85.4
selumetinib + JZL184 | 94.3
KU-0063794 + bexarotene | 99.9
MK-1775 + JZL184 | 110
AS-252424 + docetaxel | 67.3
docetaxel + KU-55933 | 75.0
palbociclib + JZL184 | 78.7
PLX4720 + GW2580 | 85.9
TCS401 + palbociclib | 71.2
PLX4720 + TCS401 | 82.3

For reference, 2 entries once more:

| Pair | C32 |
|---|---|
| AS-252424 + docetaxel | 67.3 |
| PLX4720 + TCS401 | 82.3 |